Data as given in the supplement of paper PMC6411743.
± gives the standard deviation of the averaged measurements. This is a selection; strong and weak results do not stand in their true shares.

Amino acid sequences for entries named in this document (tags omitted). A change or cut given only in a name is not applied to a line headed by its entry.
UniProt O60888: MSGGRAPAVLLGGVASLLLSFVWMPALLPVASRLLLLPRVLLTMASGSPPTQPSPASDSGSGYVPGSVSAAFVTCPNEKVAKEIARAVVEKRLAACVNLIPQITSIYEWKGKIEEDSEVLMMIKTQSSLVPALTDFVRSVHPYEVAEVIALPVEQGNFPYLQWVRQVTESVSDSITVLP
UniProt O60563, whole entry: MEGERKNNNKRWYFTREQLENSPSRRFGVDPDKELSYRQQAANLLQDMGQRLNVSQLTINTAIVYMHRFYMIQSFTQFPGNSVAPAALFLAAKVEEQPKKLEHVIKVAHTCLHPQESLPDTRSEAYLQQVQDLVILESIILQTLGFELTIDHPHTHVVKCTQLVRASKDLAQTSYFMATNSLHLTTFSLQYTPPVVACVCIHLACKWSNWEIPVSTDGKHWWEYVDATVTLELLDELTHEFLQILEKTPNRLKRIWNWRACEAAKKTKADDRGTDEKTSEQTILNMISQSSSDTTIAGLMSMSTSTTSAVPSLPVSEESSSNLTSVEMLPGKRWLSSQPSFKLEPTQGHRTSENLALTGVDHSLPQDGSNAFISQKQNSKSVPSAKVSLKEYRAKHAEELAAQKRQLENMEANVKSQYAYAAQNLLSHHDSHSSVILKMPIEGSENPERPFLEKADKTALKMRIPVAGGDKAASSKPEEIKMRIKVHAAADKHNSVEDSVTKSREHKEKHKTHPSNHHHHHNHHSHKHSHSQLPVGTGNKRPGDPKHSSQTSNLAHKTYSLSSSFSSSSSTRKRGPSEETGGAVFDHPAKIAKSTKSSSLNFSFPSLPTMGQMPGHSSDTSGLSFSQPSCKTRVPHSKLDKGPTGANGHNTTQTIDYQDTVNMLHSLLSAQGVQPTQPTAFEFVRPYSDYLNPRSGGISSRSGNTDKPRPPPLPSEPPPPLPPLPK
UniProt O75306, whole entry: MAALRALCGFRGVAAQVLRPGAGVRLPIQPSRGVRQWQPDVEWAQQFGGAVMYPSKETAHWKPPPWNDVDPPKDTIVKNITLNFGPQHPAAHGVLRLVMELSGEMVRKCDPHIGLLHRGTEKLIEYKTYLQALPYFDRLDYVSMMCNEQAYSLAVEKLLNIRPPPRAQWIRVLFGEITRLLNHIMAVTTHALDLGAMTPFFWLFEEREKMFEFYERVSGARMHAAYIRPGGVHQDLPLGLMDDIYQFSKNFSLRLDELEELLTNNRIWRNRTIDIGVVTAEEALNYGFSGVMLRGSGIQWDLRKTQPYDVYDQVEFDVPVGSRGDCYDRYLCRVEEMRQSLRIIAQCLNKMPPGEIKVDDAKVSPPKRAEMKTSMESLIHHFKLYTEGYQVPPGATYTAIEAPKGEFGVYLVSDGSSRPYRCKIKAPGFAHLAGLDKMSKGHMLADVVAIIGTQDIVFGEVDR
UniProt O60701: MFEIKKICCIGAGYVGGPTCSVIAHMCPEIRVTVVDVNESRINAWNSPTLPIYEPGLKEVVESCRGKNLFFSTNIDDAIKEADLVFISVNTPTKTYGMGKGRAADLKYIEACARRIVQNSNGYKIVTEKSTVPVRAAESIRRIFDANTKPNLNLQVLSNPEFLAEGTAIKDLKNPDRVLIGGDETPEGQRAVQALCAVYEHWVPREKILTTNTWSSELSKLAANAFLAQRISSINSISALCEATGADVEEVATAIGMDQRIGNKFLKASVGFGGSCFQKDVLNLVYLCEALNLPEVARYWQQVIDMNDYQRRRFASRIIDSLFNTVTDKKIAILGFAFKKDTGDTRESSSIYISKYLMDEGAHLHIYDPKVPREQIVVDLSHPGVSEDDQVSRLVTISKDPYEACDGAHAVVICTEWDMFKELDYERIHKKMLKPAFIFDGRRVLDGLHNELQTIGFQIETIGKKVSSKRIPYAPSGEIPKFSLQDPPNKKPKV
UniProt O75791: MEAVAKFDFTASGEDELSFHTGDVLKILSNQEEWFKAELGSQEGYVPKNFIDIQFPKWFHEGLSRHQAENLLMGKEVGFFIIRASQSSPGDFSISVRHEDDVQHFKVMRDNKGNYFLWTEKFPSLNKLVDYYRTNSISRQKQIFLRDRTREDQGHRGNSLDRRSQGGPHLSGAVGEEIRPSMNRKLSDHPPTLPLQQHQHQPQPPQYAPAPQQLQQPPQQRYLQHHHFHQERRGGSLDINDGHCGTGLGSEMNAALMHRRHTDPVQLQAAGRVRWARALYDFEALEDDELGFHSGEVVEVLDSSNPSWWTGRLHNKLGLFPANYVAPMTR
UniProt O75037: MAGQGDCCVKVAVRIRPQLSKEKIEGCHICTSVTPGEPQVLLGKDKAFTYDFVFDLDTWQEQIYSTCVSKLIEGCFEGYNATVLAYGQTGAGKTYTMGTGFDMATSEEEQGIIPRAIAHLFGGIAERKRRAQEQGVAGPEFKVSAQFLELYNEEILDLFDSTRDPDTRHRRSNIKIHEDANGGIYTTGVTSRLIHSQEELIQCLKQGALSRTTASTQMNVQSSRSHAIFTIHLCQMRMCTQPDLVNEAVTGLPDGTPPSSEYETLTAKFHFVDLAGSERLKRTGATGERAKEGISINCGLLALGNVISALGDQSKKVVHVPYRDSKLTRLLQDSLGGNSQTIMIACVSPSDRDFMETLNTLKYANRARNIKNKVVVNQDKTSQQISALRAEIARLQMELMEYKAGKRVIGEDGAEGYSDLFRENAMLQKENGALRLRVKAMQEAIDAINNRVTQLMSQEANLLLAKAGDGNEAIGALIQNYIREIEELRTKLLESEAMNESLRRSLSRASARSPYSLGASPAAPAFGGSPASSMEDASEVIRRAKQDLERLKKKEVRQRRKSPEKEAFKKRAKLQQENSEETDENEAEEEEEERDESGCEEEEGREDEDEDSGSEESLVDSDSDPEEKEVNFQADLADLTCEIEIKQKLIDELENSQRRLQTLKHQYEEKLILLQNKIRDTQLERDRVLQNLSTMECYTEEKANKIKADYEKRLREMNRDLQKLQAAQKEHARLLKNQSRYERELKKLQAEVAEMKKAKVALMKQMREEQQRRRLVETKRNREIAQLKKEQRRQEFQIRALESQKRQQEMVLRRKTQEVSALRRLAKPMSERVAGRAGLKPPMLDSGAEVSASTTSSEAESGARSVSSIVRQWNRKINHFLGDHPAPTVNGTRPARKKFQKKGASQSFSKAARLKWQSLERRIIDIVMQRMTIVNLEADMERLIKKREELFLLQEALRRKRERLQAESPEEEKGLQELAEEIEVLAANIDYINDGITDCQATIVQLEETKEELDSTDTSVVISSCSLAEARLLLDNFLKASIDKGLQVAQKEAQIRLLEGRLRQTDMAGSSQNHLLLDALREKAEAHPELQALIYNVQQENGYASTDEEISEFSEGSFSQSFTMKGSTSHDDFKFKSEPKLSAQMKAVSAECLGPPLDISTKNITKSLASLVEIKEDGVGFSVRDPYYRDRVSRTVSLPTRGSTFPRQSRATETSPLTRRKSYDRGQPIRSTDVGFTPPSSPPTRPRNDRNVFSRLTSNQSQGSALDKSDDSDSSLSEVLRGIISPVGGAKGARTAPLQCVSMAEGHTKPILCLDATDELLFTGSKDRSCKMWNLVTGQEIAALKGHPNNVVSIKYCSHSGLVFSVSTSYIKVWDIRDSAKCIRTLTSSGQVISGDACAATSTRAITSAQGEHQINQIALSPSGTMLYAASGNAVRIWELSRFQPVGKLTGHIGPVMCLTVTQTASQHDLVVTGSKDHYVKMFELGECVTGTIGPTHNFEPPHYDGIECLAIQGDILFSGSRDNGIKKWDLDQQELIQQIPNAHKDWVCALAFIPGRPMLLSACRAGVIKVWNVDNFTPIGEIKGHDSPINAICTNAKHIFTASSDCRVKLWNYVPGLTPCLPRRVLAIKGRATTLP
UniProt O75368: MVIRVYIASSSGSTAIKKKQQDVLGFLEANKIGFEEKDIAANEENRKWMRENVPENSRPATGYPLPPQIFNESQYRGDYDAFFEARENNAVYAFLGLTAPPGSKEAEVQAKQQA
UniProt O75143: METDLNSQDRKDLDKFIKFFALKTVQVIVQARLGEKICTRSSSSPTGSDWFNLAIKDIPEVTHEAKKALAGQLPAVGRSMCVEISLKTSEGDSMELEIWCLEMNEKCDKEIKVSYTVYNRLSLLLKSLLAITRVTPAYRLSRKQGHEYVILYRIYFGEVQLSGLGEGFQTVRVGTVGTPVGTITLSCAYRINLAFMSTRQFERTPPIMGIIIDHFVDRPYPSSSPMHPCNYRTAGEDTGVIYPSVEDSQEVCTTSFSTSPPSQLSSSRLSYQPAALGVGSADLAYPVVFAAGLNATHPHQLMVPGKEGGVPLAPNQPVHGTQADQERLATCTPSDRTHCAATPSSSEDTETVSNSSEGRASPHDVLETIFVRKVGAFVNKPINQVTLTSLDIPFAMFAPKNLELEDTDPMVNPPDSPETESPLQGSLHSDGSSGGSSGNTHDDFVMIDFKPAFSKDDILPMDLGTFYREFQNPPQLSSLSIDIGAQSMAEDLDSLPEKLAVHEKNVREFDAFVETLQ
UniProt O75663: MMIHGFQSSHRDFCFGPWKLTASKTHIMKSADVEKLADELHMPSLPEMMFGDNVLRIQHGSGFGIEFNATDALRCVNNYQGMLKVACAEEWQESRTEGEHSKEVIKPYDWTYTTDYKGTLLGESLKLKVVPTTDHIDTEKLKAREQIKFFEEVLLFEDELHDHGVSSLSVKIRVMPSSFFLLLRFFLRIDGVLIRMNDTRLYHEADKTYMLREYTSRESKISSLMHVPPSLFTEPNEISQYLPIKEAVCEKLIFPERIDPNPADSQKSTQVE
UniProt O60551: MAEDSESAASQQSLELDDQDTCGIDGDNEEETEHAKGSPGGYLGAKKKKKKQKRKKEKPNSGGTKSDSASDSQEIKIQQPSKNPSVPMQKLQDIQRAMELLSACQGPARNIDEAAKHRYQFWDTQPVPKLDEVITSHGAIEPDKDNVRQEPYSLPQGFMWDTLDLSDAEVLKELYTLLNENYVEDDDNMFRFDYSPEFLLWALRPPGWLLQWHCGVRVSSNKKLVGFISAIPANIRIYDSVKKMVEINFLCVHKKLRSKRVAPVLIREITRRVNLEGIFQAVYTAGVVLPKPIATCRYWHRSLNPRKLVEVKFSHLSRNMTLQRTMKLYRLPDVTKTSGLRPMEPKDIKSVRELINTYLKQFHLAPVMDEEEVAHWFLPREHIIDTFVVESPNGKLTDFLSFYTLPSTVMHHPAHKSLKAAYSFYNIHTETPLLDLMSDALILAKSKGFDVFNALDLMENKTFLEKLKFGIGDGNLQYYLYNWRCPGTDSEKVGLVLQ
UniProt O60493, whole entry: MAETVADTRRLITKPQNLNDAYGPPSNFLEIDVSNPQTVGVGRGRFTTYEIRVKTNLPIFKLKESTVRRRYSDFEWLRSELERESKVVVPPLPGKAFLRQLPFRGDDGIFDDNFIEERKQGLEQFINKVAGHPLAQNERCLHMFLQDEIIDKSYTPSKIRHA
UniProt O60925, whole entry: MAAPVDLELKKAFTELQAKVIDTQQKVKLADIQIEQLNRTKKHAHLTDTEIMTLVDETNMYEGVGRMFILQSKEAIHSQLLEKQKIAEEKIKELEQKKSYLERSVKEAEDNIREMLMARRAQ
UniProt O95391: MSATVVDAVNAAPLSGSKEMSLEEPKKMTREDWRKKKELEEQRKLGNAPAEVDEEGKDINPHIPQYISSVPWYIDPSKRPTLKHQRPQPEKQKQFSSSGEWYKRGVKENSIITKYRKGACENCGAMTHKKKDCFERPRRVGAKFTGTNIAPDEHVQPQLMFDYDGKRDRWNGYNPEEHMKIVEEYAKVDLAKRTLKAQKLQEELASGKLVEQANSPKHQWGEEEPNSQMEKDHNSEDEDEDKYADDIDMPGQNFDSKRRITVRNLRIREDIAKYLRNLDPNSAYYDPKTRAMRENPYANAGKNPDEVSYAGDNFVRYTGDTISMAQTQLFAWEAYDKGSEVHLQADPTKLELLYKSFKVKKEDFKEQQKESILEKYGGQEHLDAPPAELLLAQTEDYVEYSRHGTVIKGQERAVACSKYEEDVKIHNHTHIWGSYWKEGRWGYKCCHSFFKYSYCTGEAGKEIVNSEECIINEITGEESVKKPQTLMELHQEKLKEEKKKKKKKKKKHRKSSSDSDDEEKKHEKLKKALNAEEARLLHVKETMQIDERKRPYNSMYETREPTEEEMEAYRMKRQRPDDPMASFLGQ
UniProt O94888: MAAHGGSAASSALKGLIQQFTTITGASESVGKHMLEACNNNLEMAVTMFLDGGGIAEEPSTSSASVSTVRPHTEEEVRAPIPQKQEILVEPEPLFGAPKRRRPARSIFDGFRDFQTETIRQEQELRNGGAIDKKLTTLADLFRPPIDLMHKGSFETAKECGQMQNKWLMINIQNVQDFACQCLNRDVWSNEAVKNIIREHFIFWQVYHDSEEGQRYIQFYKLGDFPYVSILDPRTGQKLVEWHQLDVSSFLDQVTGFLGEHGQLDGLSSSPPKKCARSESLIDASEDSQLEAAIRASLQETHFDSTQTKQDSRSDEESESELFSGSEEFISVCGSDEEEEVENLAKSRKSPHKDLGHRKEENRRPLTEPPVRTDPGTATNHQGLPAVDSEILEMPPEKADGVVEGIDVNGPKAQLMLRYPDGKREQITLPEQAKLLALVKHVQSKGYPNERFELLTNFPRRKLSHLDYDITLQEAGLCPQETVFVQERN

Compound: Nc1ncnc2c1ncn2[C@@H]1O[C@H](COP(=O)(O)OP(=O)(O)OP(=O)(O)O)[C@@H](O)[C@H]1O [adenosine triphosphate]
Assay: NP40-soluble protein abundance relative to vehicle (solubility fold change) (ratio); higher = more soluble protein in presence of ATP
Method in brief: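 Values are fold changes against the detergent-processed vehicle, based on vsn-normalised intensities. Jurkat crude lysate was treated at eight concentrations from 0.1 to 10 mM (10 min at room temperature, then 3 min at 37 °C), solubilised with 0.8% NP40 and benzonase, ultracentrifuged and analysed by TMT-labelled LC-MS/MS over three independent experiments.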

Row | Target | NP40-soluble protein abundance (concentration: 1mM) | NP40-soluble protein abundance (concentration: 2mM) | NP40-soluble protein abundance (concentration: 4mM) | NP40-soluble protein abundance (concentration: 6mM) | NP40-soluble protein abundance (concentration: 8mM) | NP40-soluble protein abundance (concentration: 10mM)
1 | UniProt O94973 and related entries | 1.05 ± 0.051 | 1.07 ± 0.05 | 1.07 ± 0.057 | 1.04 ± 0.064 | 1.04 ± 0.039 | 1.09 ± 0.055
2 | UniProt O60888 and related entries | 0.892 ± 0.066 | 0.949 ± 0.11 | 0.919 ± 0.02 | 0.98 ± 0.1 | 0.914 ± 0.063 | 0.852 ± 0.11
3 | CCNT1 (UniProt O60563) | 1.1 ± 0.016 | 1.15 ± 0.018 | 1.3 ± 0.018 | 1.49 ± 0.039 | 1.54 ± 0.04 | 1.69 ± 0.073
4 | UniProt O60566 and related entries | 1.02 ± 0.021 | 1.01 ± 0.018 | 0.985 ± 0.02 | 0.988 ± 0.033 | 0.979 ± 0.021 | 0.993 ± 0.021
5 | ARL6IP5 (UniProt O75915) | 0.993 ± 0.04 | 0.951 ± 0.05 | 0.915 ± 0.038 | 1.01 ± 0.044 | 0.917 ± 0.027 | 0.923 ± 0.019
6 | UniProt O75306 and related entries | 1.08 ± 0.12 | 1.02 ± 0.063 | 1.03 ± 0.065 | 0.966 ± 0.067 | 1.04 ± 0.04 | 1.01 ± 0.052
7 | DNAJA2 (UniProt O60884) | 1.03 ± 0.038 | 0.978 ± 0.025 | 0.954 ± 0.028 | 1.02 ± 0.089 | 0.996 ± 0.058 | 1.02 ± 0.073
8 | UniProt O60504 and related entries | 0.976 ± 0.021 | 0.982 ± 0.015 | 0.98 ± 0.011 | 0.975 ± 0.02 | 0.98 ± 0.011 | 0.967 ± 0.02
9 | UniProt O75530 | 1.17 ± 0.13 | 1.23 ± 0.08 | 1.27 ± 0.081 | 1.18 ± 0.15 | 1.35 ± 0.038 | 1.39 ± 0.093
10 | UGDH (UniProt O60701) | 1.01 ± 0.028 | 0.999 ± 0.032 | 1 ± 0.019 | 0.983 ± 0.062 | 0.977 ± 0.048 | 0.984 ± 0.042
11 | GRAP2 (UniProt O75791) | 0.968 ± 0.06 | 0.968 ± 0.05 | 0.954 ± 0.05 | 0.921 ± 0.089 | 0.972 ± 0.048 | 0.94 ± 0.047
12 | CIAO1 (UniProt O76071) | 1.03 ± 0.11 | 0.985 ± 0.062 | 0.995 ± 0.034 | 0.913 ± 0.07 | 1 ± 0.016 | 0.998 ± 0.05
13 | UniProt O75037 and related entries | 1.08 ± 0.022 | 1.1 ± 0.037 | 1.1 ± 0.037 | 1.14 ± 0.058 | 1.09 ± 0.025 | 1.09 ± 0.047
14 | SH3BGRL (UniProt O75368) | 0.923 ± 0.04 | 0.909 ± 0.025 | 0.863 ± 0.026 | 0.916 ± 0.044 | 0.893 ± 0.012 | 0.859 ± 0.048
15 | MTA2 (UniProt O94776) | 1.01 ± 0.035 | 0.991 ± 0.041 | 0.976 ± 0.044 | 0.98 ± 0.086 | 1.01 ± 0.049 | 0.997 ± 0.064
16 | MYO1D (UniProt O94832) | 1.27 ± 0.2 | 1.28 ± 0.14 | 1.21 ± 0.26 | 1.32 ± 0.2 | 1.18 ± 0.18 | 1.26 ± 0.081
17 | UniProt O95298 and related entries | 0.912 ± 0.084 | 0.86 ± 0.037 | 0.813 ± 0.085 | 0.853 ± 0.12 | 0.896 ± 0.064 | 0.756 ± 0.096
18 | UniProt O75143 and related entries | 1.02 ± 0.032 | 1.02 ± 0.042 | 0.978 ± 0.025 | 1 ± 0.018 | 1.01 ± 0.043 | 0.99 ± 0.046
19 | UniProt O60711 and related entries | 1.003 ± 0.0041 | 0.994 ± 0.031 | 1.01 ± 0.041 | 1.01 ± 0.048 | 1.01 ± 0.076 | 0.967 ± 0.018
20 | UniProt O95782 and related entries | 1.06 ± 0.081 | 1.08 ± 0.063 | 1.11 ± 0.018 | 1.02 ± 0.11 | 1.13 ± 0.017 | 1.15 ± 0.048
21 | ETHE1 (UniProt O95571) | 0.961 ± 0.071 | 0.949 ± 0.07 | 0.955 ± 0.1 | 0.971 ± 0.093 | 0.926 ± 0.069 | 0.927 ± 0.064
22 | TIPRL (UniProt O75663) | 1.02 ± 0.047 | 0.949 ± 0.053 | 0.951 ± 0.057 | 0.936 ± 0.097 | 0.979 ± 0.058 | 0.915 ± 0.037
23 | NMT2 (UniProt O60551) | 1.08 ± 0.041 | 1.13 ± 0.043 | 1.15 ± 0.078 | 1.15 ± 0.063 | 1.15 ± 0.034 | 1.2 ± 0.039
24 | NDUFS6 (UniProt O75380) | 0.961 ± 0.091 | 0.901 ± 0.041 | 0.843 ± 0.039 | 0.953 ± 0.12 | 0.866 ± 0.062 | 0.857 ± 0.033
25 | SNX3 (UniProt O60493) | 0.959 ± 0.067 | 0.951 ± 0.046 | 0.91 ± 0.044 | 0.917 ± 0.039 | 0.935 ± 0.026 | 0.916 ± 0.046
26 | PFDN1 (UniProt O60925) | 0.912 ± 0.1 | 0.928 ± 0.075 | 0.922 ± 0.072 | 0.983 ± 0.11 | 0.892 ± 0.032 | 0.853 ± 0.092
27 | RAB3D (UniProt O95716) | 0.94 ± 0.12 | 0.945 ± 0.11 | 0.962 ± 0.1 | 0.947 ± 0.12 | 0.949 ± 0.053 | 0.963 ± 0.07
28 | UniProt O60858 and related entries | 1.08 ± 0.024 | 1.102 ± 0.0075 | 1.05 ± 0.083 | 1.06 ± 0.067 | 1.06 ± 0.059 | 1.06 ± 0.046
29 | SLU7 (UniProt O95391) | 0.886 ± 0.048 | 0.895 ± 0.043 | 0.903 ± 0.061 | 0.988 ± 0.16 | 1.05 ± 0.069 | 1.12 ± 0.073
30 | UBXN7 (UniProt O94888) | 0.966 ± 0.046 | 0.933 ± 0.028 | 0.917 ± 0.012 | 0.925 ± 0.027 | 0.927 ± 0.019 | 0.913 ± 0.01

Just NP40-soluble protein abundance (concentration: 6mM), NP40-soluble protein abundance (concentration: 2mM) and NP40-soluble protein abundance (concentration: 8mM) (2 entries from above):
Row	Target	NP40-soluble protein abundance (concentration: 6mM)	NP40-soluble protein abundance (concentration: 2mM)	NP40-soluble protein abundance (concentration: 8mM)
5	ARL6IP5 (UniProt O75915)	1.01 ± 0.044	0.951 ± 0.05	0.917 ± 0.027
6	UniProt O75306 and related entries	0.966 ± 0.067	1.02 ± 0.063	1.04 ± 0.04
